From the supplement of paper PMC12819154, “High-throughput peptide-centric local stability assay extends protein–ligand identification to membrane proteins, tissues and bacteria” (Nature Structural & Molecular Biology, 2025)
The other results are listed elsewhere or left out. Most values lie at the level of the controls, where differences are scatter.

Protein sequences, listed by entry. Tags and fused reporters are not part of them. Lines headed by an entry give the natural chain unless they say otherwise; changes in a name come on top.
UniProt Q8HWE5, whole entry: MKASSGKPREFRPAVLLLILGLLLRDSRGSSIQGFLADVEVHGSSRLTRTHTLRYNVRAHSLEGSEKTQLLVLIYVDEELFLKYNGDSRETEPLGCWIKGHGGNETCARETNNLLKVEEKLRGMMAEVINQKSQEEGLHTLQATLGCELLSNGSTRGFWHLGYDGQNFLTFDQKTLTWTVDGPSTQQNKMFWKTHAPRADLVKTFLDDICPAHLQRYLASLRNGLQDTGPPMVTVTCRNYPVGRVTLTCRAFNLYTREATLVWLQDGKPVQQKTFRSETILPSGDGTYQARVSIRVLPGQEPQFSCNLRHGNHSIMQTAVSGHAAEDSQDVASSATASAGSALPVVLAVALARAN
UniProt Q8CD91: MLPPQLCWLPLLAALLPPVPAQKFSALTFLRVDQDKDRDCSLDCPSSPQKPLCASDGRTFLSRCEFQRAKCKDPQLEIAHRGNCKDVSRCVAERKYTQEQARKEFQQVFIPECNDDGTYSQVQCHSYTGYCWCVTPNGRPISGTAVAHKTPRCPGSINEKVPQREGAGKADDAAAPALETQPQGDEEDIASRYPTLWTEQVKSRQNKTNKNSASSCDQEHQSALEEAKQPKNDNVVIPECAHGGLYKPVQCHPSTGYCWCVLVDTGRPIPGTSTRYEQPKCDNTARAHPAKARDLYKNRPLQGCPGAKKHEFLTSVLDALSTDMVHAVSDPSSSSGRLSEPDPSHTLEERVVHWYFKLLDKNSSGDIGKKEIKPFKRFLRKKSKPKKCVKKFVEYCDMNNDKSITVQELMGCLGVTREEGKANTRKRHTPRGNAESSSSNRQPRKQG
UniProt Q8CGI1: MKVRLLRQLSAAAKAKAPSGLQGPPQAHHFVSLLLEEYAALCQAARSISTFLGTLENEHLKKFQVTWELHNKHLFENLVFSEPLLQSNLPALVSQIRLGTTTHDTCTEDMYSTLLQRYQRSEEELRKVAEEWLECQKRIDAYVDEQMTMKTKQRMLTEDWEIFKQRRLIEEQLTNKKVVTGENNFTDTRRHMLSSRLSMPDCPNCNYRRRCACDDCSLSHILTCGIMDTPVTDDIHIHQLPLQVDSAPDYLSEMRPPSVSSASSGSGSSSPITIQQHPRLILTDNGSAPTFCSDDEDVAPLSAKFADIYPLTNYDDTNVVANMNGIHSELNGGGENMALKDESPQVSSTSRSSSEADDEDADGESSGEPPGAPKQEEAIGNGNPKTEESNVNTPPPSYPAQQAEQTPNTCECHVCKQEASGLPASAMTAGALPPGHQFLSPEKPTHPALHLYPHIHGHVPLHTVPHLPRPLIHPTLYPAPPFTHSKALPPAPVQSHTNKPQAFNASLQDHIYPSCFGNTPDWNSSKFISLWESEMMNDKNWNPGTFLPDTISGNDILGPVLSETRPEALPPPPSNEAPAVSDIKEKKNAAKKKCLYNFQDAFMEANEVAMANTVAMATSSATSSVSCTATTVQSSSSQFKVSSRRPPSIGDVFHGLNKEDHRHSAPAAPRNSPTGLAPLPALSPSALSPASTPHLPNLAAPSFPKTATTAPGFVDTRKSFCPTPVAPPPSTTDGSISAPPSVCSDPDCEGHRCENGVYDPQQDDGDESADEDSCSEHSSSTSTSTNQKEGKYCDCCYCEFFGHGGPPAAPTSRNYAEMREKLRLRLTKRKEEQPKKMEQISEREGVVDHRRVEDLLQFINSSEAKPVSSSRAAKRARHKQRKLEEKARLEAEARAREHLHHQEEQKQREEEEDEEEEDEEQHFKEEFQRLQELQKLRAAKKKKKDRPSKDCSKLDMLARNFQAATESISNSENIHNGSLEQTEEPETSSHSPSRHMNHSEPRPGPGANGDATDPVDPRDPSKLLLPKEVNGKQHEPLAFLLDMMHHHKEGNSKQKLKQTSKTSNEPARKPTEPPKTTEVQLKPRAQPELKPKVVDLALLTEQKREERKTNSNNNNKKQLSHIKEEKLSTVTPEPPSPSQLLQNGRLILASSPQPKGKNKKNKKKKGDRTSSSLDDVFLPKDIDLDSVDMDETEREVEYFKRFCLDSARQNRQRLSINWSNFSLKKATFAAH
UniProt Q8CC35: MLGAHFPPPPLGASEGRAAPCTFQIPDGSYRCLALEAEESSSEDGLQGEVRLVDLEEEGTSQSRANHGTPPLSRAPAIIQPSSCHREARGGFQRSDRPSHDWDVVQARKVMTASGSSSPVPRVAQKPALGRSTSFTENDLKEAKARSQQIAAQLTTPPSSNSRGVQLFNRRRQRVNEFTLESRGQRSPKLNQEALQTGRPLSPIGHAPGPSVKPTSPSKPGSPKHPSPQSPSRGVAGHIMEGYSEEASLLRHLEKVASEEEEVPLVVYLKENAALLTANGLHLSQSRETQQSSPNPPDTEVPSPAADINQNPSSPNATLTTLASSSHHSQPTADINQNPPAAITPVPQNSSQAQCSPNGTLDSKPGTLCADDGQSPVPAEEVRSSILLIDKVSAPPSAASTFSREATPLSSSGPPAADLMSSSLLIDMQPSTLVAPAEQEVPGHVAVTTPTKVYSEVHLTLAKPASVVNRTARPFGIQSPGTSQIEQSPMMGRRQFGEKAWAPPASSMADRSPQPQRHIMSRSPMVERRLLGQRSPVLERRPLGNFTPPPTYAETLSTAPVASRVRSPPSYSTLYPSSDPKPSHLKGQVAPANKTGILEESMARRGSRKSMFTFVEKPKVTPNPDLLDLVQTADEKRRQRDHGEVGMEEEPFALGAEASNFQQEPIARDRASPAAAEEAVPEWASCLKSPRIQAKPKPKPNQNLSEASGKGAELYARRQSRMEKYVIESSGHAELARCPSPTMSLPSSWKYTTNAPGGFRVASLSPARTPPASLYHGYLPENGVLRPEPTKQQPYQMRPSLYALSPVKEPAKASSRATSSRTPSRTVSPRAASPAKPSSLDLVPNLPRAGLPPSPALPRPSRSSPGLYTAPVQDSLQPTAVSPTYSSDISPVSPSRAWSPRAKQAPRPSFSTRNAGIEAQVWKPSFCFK
UniProt Q8JZL3: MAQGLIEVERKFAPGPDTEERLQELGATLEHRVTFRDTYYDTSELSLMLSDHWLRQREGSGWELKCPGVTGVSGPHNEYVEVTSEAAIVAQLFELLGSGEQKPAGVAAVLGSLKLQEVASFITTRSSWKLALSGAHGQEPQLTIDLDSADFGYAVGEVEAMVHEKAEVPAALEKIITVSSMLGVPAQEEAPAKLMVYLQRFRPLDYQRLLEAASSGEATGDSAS
UniProt Q8CCI5: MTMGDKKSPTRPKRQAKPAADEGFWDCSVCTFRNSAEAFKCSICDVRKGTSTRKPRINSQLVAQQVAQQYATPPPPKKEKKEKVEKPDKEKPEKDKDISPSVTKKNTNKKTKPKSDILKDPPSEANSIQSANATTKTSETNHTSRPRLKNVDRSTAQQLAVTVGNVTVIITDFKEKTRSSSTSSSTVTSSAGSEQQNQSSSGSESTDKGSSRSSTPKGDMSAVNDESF
UniProt Q8CC84: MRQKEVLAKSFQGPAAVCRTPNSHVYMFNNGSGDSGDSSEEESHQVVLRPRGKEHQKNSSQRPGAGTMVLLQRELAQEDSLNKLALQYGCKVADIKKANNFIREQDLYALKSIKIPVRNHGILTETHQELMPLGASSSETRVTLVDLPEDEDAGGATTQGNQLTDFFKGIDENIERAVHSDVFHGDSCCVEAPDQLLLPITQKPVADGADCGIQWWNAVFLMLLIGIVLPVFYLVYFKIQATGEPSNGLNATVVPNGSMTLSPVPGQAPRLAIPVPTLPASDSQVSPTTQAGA
UniProt Q8CBY1: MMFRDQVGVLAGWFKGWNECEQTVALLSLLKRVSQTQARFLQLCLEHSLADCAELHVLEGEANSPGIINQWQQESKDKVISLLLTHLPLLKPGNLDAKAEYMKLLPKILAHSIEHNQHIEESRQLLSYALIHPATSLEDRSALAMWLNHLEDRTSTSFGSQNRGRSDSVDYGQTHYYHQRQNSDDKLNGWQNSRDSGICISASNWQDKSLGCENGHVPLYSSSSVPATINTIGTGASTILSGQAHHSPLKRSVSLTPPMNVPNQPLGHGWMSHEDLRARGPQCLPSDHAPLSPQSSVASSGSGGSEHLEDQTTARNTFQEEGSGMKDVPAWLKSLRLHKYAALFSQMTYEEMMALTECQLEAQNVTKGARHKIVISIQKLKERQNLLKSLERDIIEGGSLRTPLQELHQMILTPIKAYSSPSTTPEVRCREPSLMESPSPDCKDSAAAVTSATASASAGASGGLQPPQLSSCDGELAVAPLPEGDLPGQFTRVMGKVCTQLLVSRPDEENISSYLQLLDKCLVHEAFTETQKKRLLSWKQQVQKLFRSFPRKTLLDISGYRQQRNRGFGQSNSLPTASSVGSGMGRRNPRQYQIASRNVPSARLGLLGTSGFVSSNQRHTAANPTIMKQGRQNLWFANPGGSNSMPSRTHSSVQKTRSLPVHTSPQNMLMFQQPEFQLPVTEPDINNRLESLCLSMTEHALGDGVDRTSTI
UniProt Q8CBQ5: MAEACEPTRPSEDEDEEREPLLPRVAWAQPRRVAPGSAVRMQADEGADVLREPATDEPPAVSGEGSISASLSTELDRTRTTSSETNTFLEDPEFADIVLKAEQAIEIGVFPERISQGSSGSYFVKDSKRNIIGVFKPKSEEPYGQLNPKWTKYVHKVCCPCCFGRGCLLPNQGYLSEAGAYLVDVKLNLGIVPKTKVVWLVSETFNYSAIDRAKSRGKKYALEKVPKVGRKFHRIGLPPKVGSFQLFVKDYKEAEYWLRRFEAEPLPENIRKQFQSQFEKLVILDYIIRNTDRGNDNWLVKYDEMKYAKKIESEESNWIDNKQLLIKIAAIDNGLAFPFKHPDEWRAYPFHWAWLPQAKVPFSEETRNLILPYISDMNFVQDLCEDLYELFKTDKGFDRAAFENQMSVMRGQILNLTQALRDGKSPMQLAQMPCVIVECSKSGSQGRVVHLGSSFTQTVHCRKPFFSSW
UniProt Q8CHG3: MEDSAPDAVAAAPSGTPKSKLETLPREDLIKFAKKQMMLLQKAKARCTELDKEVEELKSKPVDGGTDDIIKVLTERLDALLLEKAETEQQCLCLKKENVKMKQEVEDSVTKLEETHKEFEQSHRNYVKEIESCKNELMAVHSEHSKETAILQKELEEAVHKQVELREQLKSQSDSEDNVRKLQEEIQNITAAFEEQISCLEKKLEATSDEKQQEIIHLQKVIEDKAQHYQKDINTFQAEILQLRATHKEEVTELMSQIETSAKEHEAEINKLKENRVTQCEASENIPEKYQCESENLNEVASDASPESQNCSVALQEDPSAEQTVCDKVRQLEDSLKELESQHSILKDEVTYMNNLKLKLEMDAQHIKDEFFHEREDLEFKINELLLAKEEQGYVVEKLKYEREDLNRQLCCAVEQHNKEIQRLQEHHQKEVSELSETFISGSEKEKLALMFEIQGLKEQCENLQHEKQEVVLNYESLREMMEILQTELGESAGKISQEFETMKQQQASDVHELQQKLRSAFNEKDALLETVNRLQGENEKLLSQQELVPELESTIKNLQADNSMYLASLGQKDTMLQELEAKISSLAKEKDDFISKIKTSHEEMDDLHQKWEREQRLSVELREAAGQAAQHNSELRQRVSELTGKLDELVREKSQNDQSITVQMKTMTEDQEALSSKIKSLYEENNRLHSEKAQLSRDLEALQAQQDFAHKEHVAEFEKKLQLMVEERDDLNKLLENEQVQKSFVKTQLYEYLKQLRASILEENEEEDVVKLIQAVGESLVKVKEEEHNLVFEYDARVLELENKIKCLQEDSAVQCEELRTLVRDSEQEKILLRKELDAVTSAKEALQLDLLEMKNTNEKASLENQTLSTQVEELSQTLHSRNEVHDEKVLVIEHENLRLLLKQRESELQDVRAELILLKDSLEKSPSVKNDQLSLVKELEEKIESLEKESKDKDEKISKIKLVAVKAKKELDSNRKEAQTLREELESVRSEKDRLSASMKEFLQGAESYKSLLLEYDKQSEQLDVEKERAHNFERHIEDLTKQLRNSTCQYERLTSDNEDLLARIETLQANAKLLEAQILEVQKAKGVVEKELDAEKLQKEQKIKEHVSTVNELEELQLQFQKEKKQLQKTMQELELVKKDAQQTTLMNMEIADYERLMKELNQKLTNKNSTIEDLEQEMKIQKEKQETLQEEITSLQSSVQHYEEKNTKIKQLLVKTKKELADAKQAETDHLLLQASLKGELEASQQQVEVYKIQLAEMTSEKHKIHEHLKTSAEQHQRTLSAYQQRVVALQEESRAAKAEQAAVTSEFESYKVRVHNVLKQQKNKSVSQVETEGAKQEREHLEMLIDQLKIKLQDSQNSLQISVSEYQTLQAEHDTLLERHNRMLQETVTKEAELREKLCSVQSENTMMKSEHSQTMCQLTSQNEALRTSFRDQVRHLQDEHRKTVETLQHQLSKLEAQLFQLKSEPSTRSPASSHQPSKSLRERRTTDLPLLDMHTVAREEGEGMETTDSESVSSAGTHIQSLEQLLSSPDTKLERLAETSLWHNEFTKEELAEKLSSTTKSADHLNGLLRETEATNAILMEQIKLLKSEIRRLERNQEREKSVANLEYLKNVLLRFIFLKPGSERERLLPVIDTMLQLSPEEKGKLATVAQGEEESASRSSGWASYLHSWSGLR

What follows are targets tested with CN[C@@H]1C[C@H]2O[C@@](C)([C@@H]1OC)n1c3ccccc3c3c4c(c5c6ccccc6n2c5c31)C(=O)NC4 [staurosporine] (assay: log2 fold change of tryptic peptide abundance, ligand vs vehicle (limited proteolysis) (log2 ratio); higher = more trypsin-susceptible (destabilized)). Conditions: ligand concentration: 20 uM; sample: mouse liver crude lysate; replicate design: treated separately.

Target | log2 fold change
UniProt Q8K0V2 (peptide sequence: KAEAATEACQLPTSSGDAGR, peptide start residue: 58) | -0.0838
UniProt Q8CD10 (peptide sequence: CGSTFFR, peptide start residue: 141) | 0.308
UniProt Q8CJ12 (peptide sequence: RYLCCGKLR, peptide start residue: 884) | -0.0908
UniProt Q8HWE5 (peptide sequence: LTRTHTLR, peptide start residue: 47) | 0.158
UniProt Q8CD91 (peptide sequence: LLDKNSSGDIGKK, peptide start residue: 358) | 0.129
UniProt Q8CGI1 (peptide sequence: VVDLALLTEQK, peptide start residue: 1093) | 0.209
UniProt Q8CHG5 (peptide sequence: TIYDYVR, peptide start residue: 45) | -0.00708
UniProt Q8CGA3 (peptide sequence: EQAALQEGHK, peptide start residue: 284) | -0.285
UniProt Q8K012 (peptide sequence: MKDVYEKNPQMGDPGSLQPK, peptide start residue: 431) | 0.409
UniProt Q8CC35 (peptide sequence: YTTNAPGGFR, peptide start residue: 751) | 0.375
UniProt Q8CIB6 (peptide sequence: TNLATGLPSSK, peptide start residue: 6) | -0.0367
UniProt Q8CG14 (peptide sequence: VFVINLR, peptide start residue: 577) | -0.254
UniProt Q8JZL3 (peptide sequence: AQGLIEVERK, peptide start residue: 2) | 0.192
UniProt Q8CHS8 (peptide sequence: QIITDKEDLVK, peptide start residue: 264) | -0.343
UniProt Q8CBG9 (peptide sequence: VLREQFQTEQDVPAPAR, peptide start residue: 90) | -0.0906
UniProt Q8CGF1 (peptide sequence: NIVSWVEK, peptide start residue: 221) | -0.304
UniProt Q8CFC7 (peptide sequence: DKEEAEAIK, peptide start residue: 242) | -0.72
UniProt Q8CCI5 (peptide sequence: CSICDVR, peptide start residue: 41) | 0.275

Fetched one by one from the list above:
Target | log2 fold change
UniProt Q8CGA3 (peptide sequence: EQAALQEGHK, peptide start residue: 284) | -0.285
UniProt Q8CC35 (peptide sequence: YTTNAPGGFR, peptide start residue: 751) | 0.375

Next part

Target | log2 fold change
UniProt Q8K0T4 (peptide sequence: IYIPLPTAK, peptide start residue: 374) | 0.388
UniProt Q8CE64 (peptide sequence: SISDRVPGETSER, peptide start residue: 94) | -0.116
UniProt Q8K004 (peptide sequence: ASVHDSLAHGAPMR, peptide start residue: 411) | -0.0832
UniProt Q8CC84 (peptide sequence: GIDENIER, peptide start residue: 169) | 0.306
UniProt Q8K0D5 (peptide sequence: IATMHEVK, peptide start residue: 74) | -0.289
UniProt Q8CGP5 (peptide sequence: KTESHHKPK, peptide start residue: 120) | 0.0427
UniProt Q8CBY1 (peptide sequence: KTLLDISGYR, peptide start residue: 552) | -0.337
UniProt Q8JZS6 (peptide sequence: VEFHEPETWWK, peptide start residue: 491) | -0.439
UniProt Q8K0H5 (peptide sequence: FISDIANDALQHCK, peptide start residue: 162) | 0.129
UniProt Q8CHE4 (peptide sequence: SYIMSCEEER, peptide start residue: 1263) | 0.587
UniProt Q8CBQ5 (peptide sequence: YALEKVPK, peptide start residue: 220) | 0.155
UniProt Q8JZZ0 (peptide sequence: AESFALTMK, peptide start residue: 417) | -0.161
UniProt Q8CHG3 (peptide sequence: NSTCQYER, peptide start residue: 1048) | 0.68
UniProt Q8JZX4 (peptide sequence: QSTVLAPVIDLKR, peptide start residue: 47) | -0.103
UniProt Q8CG48 (peptide sequence: HNLQNNESQLK, peptide start residue: 899) | 0.839
UniProt Q8CG73 (peptide sequence: SSDVTSVVAPKPKPR, peptide start residue: 951) | -0.183
UniProt Q8JZN7 (peptide sequence: SCFGHPLAPQALEDVK, peptide start residue: 215) | 0.389
UniProt Q8CGF6 (peptide sequence: LIHDTANIHTSTPR, peptide start residue: 532) | -0.256
